Results taken from the supplement of paper PMC6078165.
± gives the standard deviation of the averaged measurements. Values are relative to the signal before dosing, not to a vehicle control; the signal also falls without drug.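 Fibroblast labels name human fibroblasts: mostly primary ones from tissues such as uterus (C12385, HUF), lung (H6013), bone (Hs27A), adrenal (HADF) and skin (WS1), plus mammary HMF and breast cancer-associated Hs343T. The cancer cells are basal-like or mesenchymal-like triple-negative breast cancer lines. The paper calls a changed response a hit when it shifts by more than 3x the replicate standard deviation. The tissue of the other fibroblasts is not given here.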

System: BT20
Experiment: relative JC-1 red fluorescence (viability) vs pre-drug, coculture with fibroblast (fraction); higher = more viable cancer cells
Experimental: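 JC-1 labelled TNBC cells cocultured 1:1 (1,500 cells each) with CellTrace Violet stained primary or stromal fibroblasts in 384-well plates in FluoroBrite medium, treated with one of 42 anticancer drugs at 0.1, 1, 10 or 100 uM. JC-1 red fluorescence (mitochondrial integrity in cancer cells only) was read by plate reader every 8 h for 72 h. Values are normalised to each well's pre-drug value. The stock of one drug was tenfold lower, so its dose labels may be too high.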

O=NN(CCCl)C(=O)NCCCl [Carmustine]
relative JC-1 red fluorescence
Details | 8 h | 16 h | 24 h | 32 h | 40 h | 48 h | 56 h | 64 h | 72 h
0.1 µM, coculture fibroblast: C12385 | 0.925 ± 0.048 | 0.833 ± 0.054 | 0.804 ± 0.057 | 0.753 ± 0.057 | 0.699 ± 0.052 | 0.666 ± 0.035 | 0.642 ± 0.03 | 0.627 ± 0.025 | 0.619 ± 0.019
0.1 µM, coculture fibroblast: H6013 | 0.9665 ± 0.0081 | 0.939 ± 0.02 | 0.832 ± 0.047 | 0.805 ± 0.043 | 0.781 ± 0.094 | 0.757 ± 0.096 | 0.749 ± 0.1 | 0.733 ± 0.11 | 0.718 ± 0.12
0.1 µM, coculture fibroblast: H6019 | 0.856 ± 0.0098 | 0.775 ± 0.009 | 0.748 ± 0.0097 | 0.6773 ± 0.005 | 0.628 ± 0.0083 | 0.608 ± 0.008 | 0.5772 ± 0.0019 | 0.544 ± 0.007 | 0.524 ± 0.0088
0.1 µM, coculture fibroblast: H6076 | 0.841 ± 0.034 | 0.921 ± 0.0062 | 0.8491 ± 0.005 | 0.8243 ± 0.0061 | 0.79094 ± 0.00066 | 0.7646 ± 0.0058 | 0.763 ± 0.013 | 0.76 ± 0.016 | 0.746 ± 0.025
0.1 µM, coculture fibroblast: H6231 | 0.747 ± 0.047 | 0.9364 ± 0.009 | 0.8089 ± 0.0062 | 0.734 ± 0.0026 | 0.683 ± 0.0085 | 0.636 ± 0.01 | 0.596 ± 0.015 | 0.569 ± 0.025 | 0.539 ± 0.027
0.1 µM, coculture fibroblast: HADF | 0.887 ± 0.018 | 0.842 ± 0.21 | 0.8472 ± 0.0021 | 0.8436 ± 0.0045 | 0.799 ± 0.0097 | 0.7436 ± 0.0018 | 0.714 ± 0.0086 | 0.69 ± 0.014 | 0.651 ± 0.022
0.1 µM, coculture fibroblast: HCFa | 0.946 ± 0.011 | 0.88 ± 0.069 | 0.82 ± 0.068 | 0.779 ± 0.052 | 0.72 ± 0.062 | 0.683 ± 0.054 | 0.654 ± 0.047 | 0.626 ± 0.042 | 0.58 ± 0.038
0.1 µM, coculture fibroblast: HCPF | 0.869 ± 0.18 | 0.9 ± 0.012 | 0.8075 ± 0.0019 | 0.7646 ± 0.001 | 0.7218 ± 0.003 | 0.6929 ± 0.002 | 0.657 ± 0.009 | 0.643 ± 0.018 | 0.61 ± 0.025
0.1 µM, coculture fibroblast: HHSteC | 0.929 ± 0.012 | 0.855 ± 0.012 | 0.801 ± 0.024 | 0.728 ± 0.028 | 0.671 ± 0.041 | 0.633 ± 0.053 | 0.591 ± 0.066 | 0.564 ± 0.077 | 0.529 ± 0.083
0.1 µM, coculture fibroblast: HMF | 0.9722 ± 0.0044 | 0.871 ± 0.035 | 0.753 ± 0.023 | 0.701 ± 0.023 | 0.661 ± 0.017 | 0.628 ± 0.011 | 0.594 ± 0.025 | 0.571 ± 0.0066 | 0.5434 ± 0.0054
0.1 µM, coculture fibroblast: HPFa | 0.93 ± 0.011 | 0.891 ± 0.021 | 0.87 ± 0.01 | 0.769 ± 0.033 | 0.732 ± 0.04 | 0.678 ± 0.045 | 0.638 ± 0.056 | 0.604 ± 0.063 | 0.538 ± 0.056
0.1 µM, coculture fibroblast: HUF | 0.9007 ± 0.0055 | 0.821 ± 0.0094 | 0.761 ± 0.013 | 0.676 ± 0.019 | 0.617 ± 0.02 | 0.571 ± 0.023 | 0.544 ± 0.024 | 0.516 ± 0.031 | 0.501 ± 0.032
0.1 µM, coculture fibroblast: Hs5 | 0.836 ± 0.12 | 0.8927 ± 0.0031 | 0.836 ± 0.022 | 0.788 ± 0.025 | 0.749 ± 0.018 | 0.726 ± 0.019 | 0.699 ± 0.022 | 0.661 ± 0.025 | 0.616 ± 0.02
0.1 µM, coculture fibroblast: Hs27A | 0.763 ± 0.045 | 0.848 ± 0.2 | 0.915 ± 0.035 | 0.911 ± 0.027 | 0.868 ± 0.024 | 0.852 ± 0.028 | 0.83 ± 0.024 | 0.806 ± 0.031 | 0.753 ± 0.025
0.1 µM, coculture fibroblast: Hs343T | 0.977 ± 0.019 | 0.882 ± 0.025 | 0.7488 ± 0.0012 | 0.6781 ± 0.0011 | 0.63667 ± 0.00011 | 0.589 ± 0.0064 | 0.5399 ± 0.0011 | 0.5238 ± 0.00023 | 0.492 ± 0.0051
0.1 µM, coculture fibroblast: WS1 | 0.867 ± 0.021 | 0.8 ± 0.025 | 0.726 ± 0.084 | 0.66 ± 0.097 | 0.607 ± 0.1 | 0.583 ± 0.1 | 0.549 ± 0.1 | 0.523 ± 0.11 | 0.513 ± 0.1
1 µM, coculture fibroblast: C12385 | 0.905 ± 0.047 | 0.839 ± 0.067 | 0.828 ± 0.13 | 0.768 ± 0.13 | 0.701 ± 0.16 | 0.685 ± 0.17 | 0.658 ± 0.18 | 0.647 ± 0.19 | 0.641 ± 0.2
1 µM, coculture fibroblast: H6013 | 0.925 ± 0.023 | 0.858 ± 0.022 | 0.871 ± 0.059 | 0.831 ± 0.046 | 0.802 ± 0.062 | 0.796 ± 0.056 | 0.8 ± 0.061 | 0.789 ± 0.071 | 0.776 ± 0.074
1 µM, coculture fibroblast: H6019 | 0.84 ± 0.051 | 0.796 ± 0.081 | 0.819 ± 0.14 | 0.786 ± 0.17 | 0.761 ± 0.19 | 0.763 ± 0.21 | 0.744 ± 0.22 | 0.731 ± 0.23 | 0.715 ± 0.24
1 µM, coculture fibroblast: H6076 | 0.9394 ± 0.0027 | 0.8954 ± 0.0049 | 0.836 ± 0.017 | 0.796 ± 0.0095 | 0.769 ± 0.013 | 0.751 ± 0.015 | 0.762 ± 0.012 | 0.759 ± 0.029 | 0.75 ± 0.014
1 µM, coculture fibroblast: H6231 | 0.983 ± 0.013 | 0.827 ± 0.015 | 0.776 ± 0.03 | 0.725 ± 0.029 | 0.696 ± 0.029 | 0.65 ± 0.029 | 0.624 ± 0.027 | 0.6 ± 0.025 | 0.579 ± 0.019
1 µM, coculture fibroblast: HADF | 0.9688 ± 0.0094 | 0.87 ± 0.029 | 0.831 ± 0.043 | 0.785 ± 0.035 | 0.751 ± 0.034 | 0.711 ± 0.027 | 0.691 ± 0.028 | 0.682 ± 0.021 | 0.65 ± 0.016
1 µM, coculture fibroblast: HCFa | 0.9206 ± 0.0056 | 0.864 ± 0.048 | 0.833 ± 0.059 | 0.776 ± 0.076 | 0.736 ± 0.1 | 0.703 ± 0.11 | 0.682 ± 0.12 | 0.659 ± 0.13 | 0.624 ± 0.13
1 µM, coculture fibroblast: HCPF | 0.949 ± 0.035 | 0.8841 ± 0.0014 | 0.833 ± 0.018 | 0.773 ± 0.03 | 0.738 ± 0.048 | 0.697 ± 0.057 | 0.67 ± 0.065 | 0.648 ± 0.064 | 0.61 ± 0.073
1 µM, coculture fibroblast: HHSteC | 0.902 ± 0.023 | 0.87 ± 0.017 | 0.863 ± 0.027 | 0.781 ± 0.031 | 0.736 ± 0.036 | 0.701 ± 0.031 | 0.68 ± 0.031 | 0.658 ± 0.029 | 0.635 ± 0.02
1 µM, coculture fibroblast: HMF | 0.927 ± 0.051 | 0.857 ± 0.038 | 0.774 ± 0.014 | 0.7221 ± 0.007 | 0.688 ± 0.008 | 0.636 ± 0.014 | 0.61 ± 0.03 | 0.587 ± 0.033 | 0.555 ± 0.045
1 µM, coculture fibroblast: HPFa | 0.95 ± 0.029 | 0.873 ± 0.077 | 0.872 ± 0.11 | 0.788 ± 0.11 | 0.752 ± 0.12 | 0.703 ± 0.12 | 0.675 ± 0.13 | 0.631 ± 0.12 | 0.566 ± 0.12
1 µM, coculture fibroblast: HUF | 0.903 ± 0.032 | 0.822 ± 0.034 | 0.8 ± 0.038 | 0.731 ± 0.036 | 0.691 ± 0.04 | 0.656 ± 0.047 | 0.639 ± 0.05 | 0.625 ± 0.059 | 0.609 ± 0.05
1 µM, coculture fibroblast: Hs5 | 0.968 ± 0.034 | 0.907 ± 0.0093 | 0.858 ± 0.014 | 0.8214 ± 0.0048 | 0.8001 ± 0.0063 | 0.7632 ± 0.00095 | 0.731 ± 0.017 | 0.709 ± 0.036 | 0.686 ± 0.045
1 µM, coculture fibroblast: Hs27A | 0.812 ± 0.1 | 0.932 ± 0.038 | 0.844 ± 0.014 | 0.825 ± 0.021 | 0.782 ± 0.012 | 0.762 ± 0.014 | 0.738 ± 0.014 | 0.707 ± 0.0079 | 0.66 ± 0.0089
1 µM, coculture fibroblast: Hs343T | 0.94 ± 0.03 | 0.859 ± 0.03 | 0.7721 ± 0.0077 | 0.7059 ± 0.003 | 0.6362 ± 0.0043 | 0.5862 ± 0.0018 | 0.5417 ± 0.0015 | 0.5113 ± 0.0042 | 0.481 ± 0.0062
1 µM, coculture fibroblast: WS1 | 0.84031 ± 0.00053 | 0.7323 ± 0.0023 | 0.675 ± 0.0069 | 0.5958 ± 0.0014 | 0.5334 ± 0.001 | 0.4962 ± 0.0012 | 0.4637 ± 0.0028 | 0.4378 ± 0.0013 | 0.4242 ± 0.0029
